Source: PubChem BioAssay AID504784 (Drosophila RNAi Screening Center, 2011)
The screen tested about 17,000 reagents; this is a random part of those with a known target gene and a result. 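Each column is one replicate's B-score; the combined score over replicates was not deposited, so single values may mislead.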 Reagents against one gene are numbered here. Names joined by + are all predicted targets of the reagent. Further read-outs or replicates are left out here.

Test: 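Fly genes whose silencing alters how much lipid cells keep in droplets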 (primary screen)
Cell system: Drosophila Kc167 embryonic cells
Knock-down reagent: long dsRNA against Drosophila genes, about 250 ng dsRNA per well
Duration: 4 days
Treatment: cells fed 400 µM oleic acid bound to BSA
Read-out: 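Cells imaged and segmented; ratio of lipid droplet area to nuclear area, log-transformed, then normalised as a B-score over the screen; higher means more stored lipid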
Reading the numbers: droplet/nuclear area B-score: higher = more stored lipid (overstorage)

Against miple2 (GeneID 44787), the entry reads droplet/nuclear area B-score, replicate 1 = -0.712.
CG12674 (GeneID 33384) showed droplet/nuclear area B-score, replicate 1 = -0.00917.
spin (GeneID 45380) #1 scored droplet/nuclear area B-score, replicate 1 = 0.482.
After knock-down of spin (GeneID 45380) #2 the results were droplet/nuclear area B-score, replicate 1 = 0.123.
Tsp29Fb (GeneID 34212) showed droplet/nuclear area B-score, replicate 1 = -0.404.
For side-VII (GeneID 41184) the deposit lists droplet/nuclear area B-score, replicate 1 = -0.0335.
Depletion of CG34247 (GeneID 5740480) came out at: droplet/nuclear area B-score, replicate 1 = 0.914.
With knock-down of Scox (GeneID 33711), the screen gave droplet/nuclear area B-score, replicate 1 = 1.99.
Silencing of B-H1 (GeneID 32724) #1 gave: droplet/nuclear area B-score, replicate 1 = 1.95.
Knock-down of B-H1 (GeneID 32724) #2 came out at: droplet/nuclear area B-score, replicate 1 = 3.75.
With knock-down of h-cup + Rbp the results were droplet/nuclear area B-score, replicate 1 = -0.888.
CG9444 (GeneID 41175) scored droplet/nuclear area B-score, replicate 1 = -0.866.
After knock-down of CG13667 (GeneID 38956) the results were droplet/nuclear area B-score, replicate 1 = -0.888.
For Gr23a (GeneID 33453) the deposit lists droplet/nuclear area B-score, replicate 1 = -0.868.
With knock-down of Adgf-E (GeneID 36627) the results were droplet/nuclear area B-score, replicate 1 = 1.08.
With knock-down of kek3 (GeneID 34912) #1, the screen gave droplet/nuclear area B-score, replicate 1 = -0.215.
With knock-down of kek3 (GeneID 34912) #2, the record shows droplet/nuclear area B-score, replicate 1 = -0.397.
CR10032 (GeneID 40877) scored droplet/nuclear area B-score, replicate 1 = 1.45.
For dgrn (GeneID 40725), the entry reads droplet/nuclear area B-score, replicate 1 = 0.63.
Depletion of Ets65A (GeneID 38700) #1 came out at: droplet/nuclear area B-score, replicate 1 = 0.364.
Ets65A (GeneID 38700) #2 gave droplet/nuclear area B-score, replicate 1 = 1.16.
Ets65A (GeneID 38700) #3 showed droplet/nuclear area B-score, replicate 1 = -2.92.
With knock-down of CG16957 (GeneID 34755), the screen gave droplet/nuclear area B-score, replicate 1 = -0.613.
TTLL5 (GeneID 43015) showed droplet/nuclear area B-score, replicate 1 = -0.506.
With knock-down of FucTB (GeneID 34260), the screen gave droplet/nuclear area B-score, replicate 1 = -0.48.
With knock-down of CG14088 (GeneID 40098) the results were droplet/nuclear area B-score, replicate 1 = 1.01.
After knock-down of CG13724 (GeneID 39927), the screen gave droplet/nuclear area B-score, replicate 1 = -0.0516.

As entered above.
h-cup + Rbp, droplet/nuclear area B-score, replicate 1 = -0.888
Under “droplet/nuclear area B-score, replicate 1”, spin (GeneID 45380) #2 reads 0.123
